Results on 6 compounds are retold here after the supplement of paper PMC4604168 (melanoma cell lines).

Structures are written as SMILES. This is one part of the list. Repeats are few or missing, and single values can be far off.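 Imaging used 1,536-well plates; nuclei positive for cleaved PARP by antibody were divided by total DNA-stained nuclei to yield the apoptosis fraction. Doses for screening kept most cells viable, and cell lines differ markedly in resting and induced cleaved-PARP levels.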

In this test the test system is CBRC034 (line from a melanoma biopsy). The test can be described thus: cleaved PARP positive nuclei fraction relative to DMSO control; melanoma cells; higher = more apoptosis. The note with it: library dose: low library concentration; 72 h.
As for `C[As](C)SC[C@H](NC(=O)CC[C@H](N)C(=O)O)C(=O)NCC(=O)O` [Darinaparsin] + c1cc(-c2cnn3cc(-c4ccc(OCCN5CCCCC5)cc4)cnc23)ccn1 [Dorsomorphin] (first compound 0.4 µM, partner dose 0.4 µM), the “cleaved PARP positive nuclei fraction” value stood at 93.2%.

`Cc1nc(Nc2ncc(C(=O)Nc3c(C)cccc3Cl)s2)cc(N2CCN(CCO)CC2)n1` [dasatanib] + Cc1cc(SCc2sc(-c3ccc(C(F)(F)F)c(F)c3)nc2C)ccc1OCC(=O)O [GW0742] (first compound 0.004 µM, partner dose 2 µM): the “cleaved PARP positive nuclei fraction” value is 137%.

Regarding `C/C(O)=C(\C#N)C(=O)Nc1cc(Br)ccc1Br` + Oc1nc(-c2ccc(C(F)(F)F)cc2)nc2c1CSCC2 [XAV939] (first compound 2 µM, partner dose 2 µM), the “cleaved PARP positive nuclei fraction” value was found to be 54.9%.

`O=C(Nc1cccc(Cl)c1)Nc1ncc(CCNc2ncnc3ccsc23)s1` + C/C(O)=C(\C#N)C(=O)Nc1cc(Br)ccc1Br [LFM-A13] (first compound 0.0008 µM, partner dose 2 µM): the “cleaved PARP positive nuclei fraction” value was 76%. For the compound `Cc1ccc(NC(=O)c2cccc(N(C)C)c2)cc1NC(=O)c1ccc(O)cc1` + O=C(Oc1ccc([N+](=O)[O-])cc1)N1CCC(C(O)(c2ccc3c(c2)OCO3)c2ccc3c(c2)OCO3)CC1 [JZL184] (first compound 2 µM, partner dose 1 µM), the “cleaved PARP positive nuclei fraction” value came out at 53.2%.

For `O=C(Oc1ccc([N+](=O)[O-])cc1)N1CCC(C(O)(c2ccc3c(c2)OCO3)c2ccc3c(c2)OCO3)CC1` + CC(C)CCN1c2nc(Nc3cc(F)c(O)c(F)c3)ncc2N(C)C(=O)C1C [BID1870] (first compound 1 µM, partner dose 0.2 µM), the “cleaved PARP positive nuclei fraction” value was 106%.
